# Results: PubChem BioAssay AID651595 (National Center for Advancing Translational Sciences (NCATS), 2012)
# The whole screen tested about 1,100 compounds, of which fewer than 10 were called active. Inconclusive results (about 6%) are left out. The call rests on the fitted dose curve; in most records, active means well fitted cell-killing curve with a large enough effect; inconclusive means small, poorly fitted or top-dose-only effect; inactive means flat fitted curve, though single readings scatter. Some of the results follow.
# Experiment: qHTS of Nrf2 Activators: Hit Validation in Cytotox Assay;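 further: compound exposure lasted 24 hours before the ATP readout; 0% is about no effect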
# Conditions: Cell viability counter-screen for Nrf2 activator hits; series mostly up to 46.1 µM; activity change, negative = cytotoxicity: at the top concentration
# Text: Many diseases have some form of oxidative stress injury and ties to inflammation, causing a host of problems for the patient. The antioxidant response element (ARE) plays an important role in alleviating the harmful effects of oxidative stress. The antioxidant response element (ARE) is a transcriptional regulatory element involved in the activation of genes coding for a number of antioxidant proteins and detoxifying enzymes. These enzymes work in concert to protect tissues from oxidative insults and chemical toxicities in human hepatocytes and immune cells. The protective effects of ARE activation are primarily triggered through Nrf2 (NF-E2-related factor) binding to and activating AREs. It is known that Nrf2 controls the production of over 250 antioxidant and detoxification proteins (Hu et al., 2006), thereby protecting tissues by increasing cellular antioxidant content and suppressing inflammatory signaling pathways. The transcription factor Nrf2 is a central link between oxidative chemicals, such as phenolic antioxidants and electrophilic compounds, and the activation of ARE. Nrf2 levels are constitutively low as a consequence of its interaction with Keap1, which targets its degradation (Zipper and Mulcahy, 2002). Electrophiles react with key cysteine residues in Keap1, releasing Nrf2 and allowing its translocation to the nucleus. Once within the nucleus, Nrf2 complexes with coactivators such as p300, and binds to the AREs to induce gene transcription of cytoprotective enzymes, resulting in the prevention of toxicity. Activation of Nrf2 protects tissues by increasing cellular antioxidant content and suppressing inflammatory signaling pathways. Identifying novel and potent Nrf2 activators by using the AREc32 cell line to detect ARE activation by small molecules will lead to the identification and development of probes to study protective pathways in multiple tissues. These specific probes are essential to study the ARE pathway, and eventually to determine whether this pathway does activate genes that could protect against a host of diseases, including cardiovascular diseases, obesity, diabetes, Alzheimer's, and Parkinson's disease.
# This project's aim is to identify novel and potent Nrf2 activators by using the AREc32 cell line to detect ARE activation by small molecules, which will lead to the identification and development of probes to study the ARE pathway. Cytotoxic compounds are flagged as active, and inactivity is desired in this assay.
# NIH Chemical Genomics Center [NCGC]
# NIH Molecular Libraries Probe Centers Network [MLPCN]
# Assay Submitter (PI): Curtis Klaassen, University of Kansas Medical Center
# Cell viability after compound treatment was measured using a luciferase-coupled ATP quantitation assay (CellTiter-Glo, Promega) in AREc32_fluc cells. The change of intracellular ATP content indicates the number of metabolically competent cells after compound treatment. AREc32_fluc cells were harvested from T225 flask and resuspended in phenol red free OPTI-MEM medium with 5% FBS. Then 5 microL of 200,000 cells/ml resuspended cells was dispensed into each well of white, solid bottom, 1536-well tissue culture-treated plates using a Multidrop Combi dispenser. After overnight culture at 37 degrees C with 5% CO2, a total of 23 nL of compounds at 7 selected concentrations from the cherry pick or positive control (40 uM stock of CDDO-IM and 2 mM of tBHQ) in DMSO was transferred to each well of the assay plate using a pintool (Kalypsys, San Diego, CA), and the plates were further incubated at 37 degrees C with 5% CO2 for 24 hours. After that, 4 microL of CellTilter-GloTM luminescent substrate mix (Promega) was added to each well. The plate was incubated at room temperature for 30 minutes. The plates were measured on a ViewLux plate reader (PerkinElmer) with clear filter.
row,Structure (SMILES),"activity change, negative = cytotoxicity"
1,COc1cc(OC)cc(-c2nc3ccccc3s2)c1,inactive: -0.0317%
2,Cc1c(Nc2nc3ccccc3n3cnnc23)cccc1[N+](=O)[O-],inactive: 8.26%
3,COc1ccc(Cl)cc1NC(=O)CSc1c2c(nc3ccccc13)CCC2,inactive: -1.25%
4,COC(=O)c1ccccc1NC(=O)/C=C/c1ccco1,inactive: -9.3%
5,Cn1c(=O)n(C)c2cc(NC(=O)c3cccc([N+](=O)[O-])c3)c(Br)cc21,inactive: -12.3%
6,CC1CCCCC1NC(=O)COC(=O)c1c2c(nc3ccccc13)/C(=C/c1ccco1)CC2 (stereo not given),inactive: -2.82%
7,CCN1C(=O)/C(=C\c2ccco2)C(C(=O)OC)=C1C,inactive: -2.74%
8,c1ccc(-c2ccc3c(c2)NC(C2Nc4cc(-c5ccccc5)ccc4O2)O3)cc1 (stereo not given),inactive: 0.452%
9,COC(=O)c1sccc1NC(=O)c1csc(C)c1,inactive: 5.54%
10,COc1cc(OCc2ccccc2)c(C(=O)/C=C/c2ccc3c(c2)OCO3)c(OC)c1OC,inactive: 4.11%
11,COC(=O)C1=C(C)N(c2ccc(Br)cc2)C(=O)/C1=C\c1ccco1,inactive: 2.27%
12,CS(=O)(=O)c1ccc2nc(NC(=O)CCS(=O)(=O)c3ccccc3)sc2c1,inactive: 11.9%
13,O=C(/C=C/c1ccccc1[N+](=O)[O-])N1CCc2ccccc2C1,inactive: 3.92%
14,O=C1C(=Cc2ccco2)CCCC1=Cc1ccco1,inactive: 1.09%
15,Cc1cc(C)c(C#N)c(SCC(=O)c2ccccc2)n1,inactive: 9.1%
16,O=[N+]([O-])c1cncc([N+](=O)[O-])c1Nc1cccc(O)c1,inactive: -19.7%
17,S=c1nc(-c2ccccc2)[nH]c2ccc(Br)cc12,inactive: 8.86%
18,CCn1c(/C=C/c2ccccc2[N+](=O)[O-])nc2ccccc2c1=O,inactive: -0.354%
19,O=C(N/N=C/c1cn[nH]c1-c1ccccc1)c1ccco1,inactive: 11.8%
20,NS(=O)(=O)c1ccc(Sc2nc3ccccc3s2)c([N+](=O)[O-])c1,inactive: -13.7%

row,Structure (SMILES),"activity change, negative = cytotoxicity"
1,O=C(/C=C/c1ccco1)Nc1cccc2cccnc12,inactive: 2.07%
2,Cn1ccsc1=NC(=O)c1ccc([N+](=O)[O-])o1,inactive: -23.3%
3,Nc1c(C(=O)Nc2ccccc2Br)sc2nc(-c3cccs3)ccc12,inactive: -2.28%
4,c1coc(-c2cnc3ccccc3n2)c1,inactive: 8.74%
5,COC(=O)c1sccc1NC(=O)c1cc(C)on1,inactive: 8.04%
6,Cc1ccc([N+](=O)[O-])c(OCc2ncc(Cl)n2C)c1,inactive: -2.21%
7,O=C(CSc1ccc(-c2ccco2)nn1)N1CCCCC1,inactive: -5.05%
8,CCOC(=O)C(=Cc1ccccc1OC)C(=O)OCC,inactive: -0.294%
9,COc1nc2ccc(C)cc2cc1-c1noc(-c2ccccc2)n1,inactive: 5.62%
10,O=C(Nc1ncc2c(n1)-c1ccccc1CC2)c1cccs1,inactive: -1.4%
11,O=c1nc2c(O)cccn2c2c1c(=O)[nH]c1ccccc12,inactive: 11.3%
12,Cc1cc(-c2sccc2Br)nc(-n2cccc2)n1,inactive: 6.63%
13,O=C1N/C(=N\N=C\c2ccco2)SC1Cc1ccccc1[N+](=O)[O-] (stereo not given),inactive: 2.03%
14,O=C(CSc1ccc(-c2ccco2)nn1)N1CCCCCC1,inactive: 0.45%
15,COCCNc1ccc(-c2nc(-c3ccco3)no2)cc1[N+](=O)[O-],inactive: 2.29%
16,Cc1ccc(-c2nc(C=Nc3ccc(O)cc3)c(O)o2)cc1,inactive: 7.56%
17,O=C1C(=C2CCc3ccccc32)Cc2ccccc21,inactive: 0.97%
18,CNc1ccc(-c2nc(-c3ccco3)no2)cc1[N+](=O)[O-],inactive: 12.3%
19,Nc1c(C(=O)c2ccc(Br)s2)oc2ccccc12,inactive: 1.91%
20,Cc1ccc(S(=O)(=O)c2cc3ccccc3oc2=O)cc1,inactive: 10.2%

# Reformatted: 4 of the compounds above
row	Structure (SMILES)	activity change, negative = cytotoxicity
2	Cn1ccsc1=NC(=O)c1ccc([N+](=O)[O-])o1	inactive: -23.3%
5	COC(=O)c1sccc1NC(=O)c1cc(C)on1	inactive: 8.04%
13	O=C1N/C(=N\N=C\c2ccco2)SC1Cc1ccccc1[N+](=O)[O-] (stereo not given)	inactive: 2.03%
15	COCCNc1ccc(-c2nc(-c3ccco3)no2)cc1[N+](=O)[O-]	inactive: 2.29%

# (listing goes on)

row,Structure (SMILES),"activity change, negative = cytotoxicity"
1,NC(=O)c1nc(Nc2ccccc2)sc1NC(=O)c1ccccc1Br,inactive: 3.79%
2,C=CCSc1nccc(-c2cc(Cl)sc2Cl)n1,inactive: -5.4%
3,Brc1ccc(-c2nnc(-c3cccnc3)c3conc23)cc1,inactive: -1.23%
4,c1coc(CSc2ncnc3c2oc2ccccc23)c1,inactive: -0.0884%
5,Cc1cc(C)n2nc(-c3ccc(F)cc3)cc2n1,inactive: 3.57%
6,O=C(C=Cc1ccco1)c1ccc2ccccc2c1,inactive: -2.17%
7,Fc1ccc(-c2nc3c4ccccc4ccn3c2Cc2ccccc2C(F)(F)F)cc1,inactive: -6.37%
8,CN1c2ccsc2/C(=N/Nc2ccccc2)CS1(=O)=O,inactive: -1.51%
9,CC(=O)OC1(C(C)=O)CCC2C3CC(C(F)(F)F)C4=CC(=O)CCC4(C)C3CCC21C (stereo not given),inactive: 2.22%
10,COC(=O)c1scc(C)c1NC(=O)c1ccc(Cl)cc1,inactive: 1.37%
11,O=C(Oc1ccccc1/C=C\C(=O)c1cc2ccccc2o1)c1ccccc1,inactive: 5%
12,COc1ccc(Cl)cc1NC(=O)c1cc(C)no1,inactive: 10.2%
13,COc1ccc(OC)c(C(=O)Nc2c(O)ccc3ccccc23)c1,inactive: 3.44%
14,CCSc1nc2ccccc2n1C(=O)/C=C\c1ccc(OC)c(OC)c1,inactive: 21%
15,O=C(NC(=S)Nc1ccc(Cl)cn1)c1cccs1,inactive: 0.914%
16,COc1ccc(Cl)cc1NC(=O)c1ccco1,inactive: 10.9%
17,Cc1ccc(N=C/C(C(=O)C(F)(F)F)=C(\O)c2ccco2)cc1Cl,inactive: -0.288%
18,Cc1ccccc1-c1noc(-c2ccccc2C(=O)NCc2ccco2)n1,inactive: -13.3%
19,O=C1NC(=Nc2ccc(O)cc2)S/C1=C/c1ccco1,inactive: -0.492%
20,COc1ccc(NC(=O)Nc2nnc(-c3ccccc3F)s2)cc1,inactive: -0.609%
